In the supplement of paper PMC10626197:
Structures can show the parent of a compound that is named as a salt. ± gives the standard deviation of the averaged measurements. Several reference drugs read as weak here; read low effects with care.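 MCF7, a breast cancer cell line, was exposed to pairs of drugs across a grid of doses. Every plate had solvent-only (DMSO) wells as the untreated reference and a doxorubicin series as the total-kill control. No hit threshold is applied to these viability readings.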

Test system: MCF7
Assay: cell viability relative to DMSO control (raw); higher = more viable cells
Conditions: exposure time 72 h
Experimental: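 MCF7 cells, 1000 cells/well in 384-well plates, treated with 6x6 dose matrices of drug pairs (1:3 serial dilutions, DMSO as lowest dose) for 72 h at 37 °C. Viability read by CellTiter-Glo luminescence, 3 biological replicates. Normalised viability sets 0% at the highest doxorubicin dose and 100% at the 0,0 µM control per combination.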

[1] = drug 1 concentration 0.123457 µM, drug 2 concentration 0 µM
[2] = drug 1 concentration 0.37037 µM, drug 2 concentration 0 µM
[3] = drug 1 concentration 1.11111 µM, drug 2 concentration 0 µM
[4] = drug 1 concentration 3.33333 µM, drug 2 concentration 0 µM
[5] = drug 1 concentration 10 µM, drug 2 concentration 0 µM

Compound: CC(=O)O[C@@]12CO[C@@H]1C[C@H](O)[C@@]1(C)C(=O)[C@H](O)C3=C(C)[C@@H](OC(=O)[C@H](O)[C@@H](NC(=O)OC(C)(C)C)c4ccccc4)C[C@@](O)([C@@H](OC(=O)c4ccccc4)[C@H]21)C3(C)C [Docetaxel] + Cn1cc(-c2ccc3nnc(C(F)(F)c4ccc5ncccc5c4)n3n2)cn1 [JNJ-38877605]
- cell viability (drug 1 concentration 0.00617284 µM, drug 2 concentration 0 µM): 93.3 ± 12%
- cell viability (drug 1 concentration 0.00617284 µM, drug 2 concentration 0.0617284 µM): 93.6 ± 9.1%
- cell viability (drug 1 concentration 0.00617284 µM, drug 2 concentration 0.185185 µM): 99.7 ± 15%
- cell viability (drug 1 concentration 0.00617284 µM, drug 2 concentration 0.555556 µM): 106 ± 9.1%
- cell viability (drug 1 concentration 0.00617284 µM, drug 2 concentration 1.66667 µM): 88.5 ± 15%
- cell viability (drug 1 concentration 0.00617284 µM, drug 2 concentration 5 µM): 75.1 ± 12%
- cell viability (drug 1 concentration 0.0185185 µM, drug 2 concentration 0 µM): 103 ± 11%
- cell viability (drug 1 concentration 0.0185185 µM, drug 2 concentration 0.0617284 µM): 104 ± 12%
- cell viability (drug 1 concentration 0.0185185 µM, drug 2 concentration 0.185185 µM): 104 ± 8.7%
- cell viability (drug 1 concentration 0.0185185 µM, drug 2 concentration 0.555556 µM): 103 ± 11%
- cell viability (drug 1 concentration 0.0185185 µM, drug 2 concentration 1.66667 µM): 102 ± 9.1%
- cell viability (drug 1 concentration 0.0185185 µM, drug 2 concentration 5 µM): 101 ± 12%
- cell viability (drug 1 concentration 0.0555556 µM, drug 2 concentration 0 µM): 92.4 ± 9.1%
- cell viability (drug 1 concentration 0.0555556 µM, drug 2 concentration 0.0617284 µM): 93 ± 11%
- cell viability (drug 1 concentration 0.0555556 µM, drug 2 concentration 0.185185 µM): 96.3 ± 7.3%
- cell viability (drug 1 concentration 0.0555556 µM, drug 2 concentration 0.555556 µM): 96.2 ± 6.9%
- cell viability (drug 1 concentration 0.0555556 µM, drug 2 concentration 1.66667 µM): 90.5 ± 3.9%
- cell viability (drug 1 concentration 0.0555556 µM, drug 2 concentration 5 µM): 78.6 ± 5.4%
- cell viability (drug 1 concentration 0.166667 µM, drug 2 concentration 0 µM): 100 ± 8.5%
- cell viability (drug 1 concentration 0.166667 µM, drug 2 concentration 0.0617284 µM): 102 ± 4.3%
- cell viability (drug 1 concentration 0.166667 µM, drug 2 concentration 0.185185 µM): 104 ± 6.7%
- cell viability (drug 1 concentration 0.166667 µM, drug 2 concentration 0.555556 µM): 97.2 ± 6.9%
- cell viability (drug 1 concentration 0.166667 µM, drug 2 concentration 1.66667 µM): 101 ± 6.5%
- cell viability (drug 1 concentration 0.166667 µM, drug 2 concentration 5 µM): 98.5 ± 7.3%
- cell viability (drug 1 concentration 0.5 µM, drug 2 concentration 0 µM): 94 ± 8.6%
- cell viability (drug 1 concentration 0.5 µM, drug 2 concentration 0.0617284 µM): 108 ± 11%
- cell viability (drug 1 concentration 0.5 µM, drug 2 concentration 0.185185 µM): 106 ± 11%
- cell viability (drug 1 concentration 0.5 µM, drug 2 concentration 0.555556 µM): 105 ± 7.5%
- cell viability (drug 1 concentration 0.5 µM, drug 2 concentration 1.66667 µM): 97.7 ± 2.5%
- cell viability (drug 1 concentration 0.5 µM, drug 2 concentration 5 µM): 83.4 ± 12%

Compound: C#Cc1cccc(Nc2ncnc3cc(OCCOC)c(OCCOC)cc23)c1 [Erlotinib] + C=C1/C(=C\C=C2/CCC[C@]3(C)[C@@H]([C@H](C)CCCC(C)C)CC[C@@H]23)C[C@@H](O)C[C@@H]1O [Alfacalcidol]
- cell viability [1]: 94.1 ± 13%
- cell viability (drug 1 concentration 0.123457 µM, drug 2 concentration 0.617284 µM): 94.3 ± 12%
- cell viability (drug 1 concentration 0.123457 µM, drug 2 concentration 1.85185 µM): 93.5 ± 15%
- cell viability (drug 1 concentration 0.123457 µM, drug 2 concentration 5.55556 µM): 89.3 ± 12%
- cell viability (drug 1 concentration 0.123457 µM, drug 2 concentration 16.6667 µM): 75.4 ± 16%
- cell viability (drug 1 concentration 0.123457 µM, drug 2 concentration 50 µM): 6.85 ± 12%
- cell viability [2]: 93.9 ± 8.8%
- cell viability (drug 1 concentration 0.37037 µM, drug 2 concentration 0.617284 µM): 91.8 ± 11%
- cell viability (drug 1 concentration 0.37037 µM, drug 2 concentration 1.85185 µM): 91.8 ± 13%
- cell viability (drug 1 concentration 0.37037 µM, drug 2 concentration 5.55556 µM): 84.7 ± 10%
- cell viability (drug 1 concentration 0.37037 µM, drug 2 concentration 16.6667 µM): 76.3 ± 13%
- cell viability (drug 1 concentration 0.37037 µM, drug 2 concentration 50 µM): 6.76 ± 9%
- cell viability [3]: 96.1 ± 15%
- cell viability (drug 1 concentration 1.11111 µM, drug 2 concentration 0.617284 µM): 96.2 ± 18%
- cell viability (drug 1 concentration 1.11111 µM, drug 2 concentration 1.85185 µM): 93.9 ± 15%
- cell viability (drug 1 concentration 1.11111 µM, drug 2 concentration 5.55556 µM): 94 ± 13%
- cell viability (drug 1 concentration 1.11111 µM, drug 2 concentration 16.6667 µM): 80.5 ± 16%
- cell viability (drug 1 concentration 1.11111 µM, drug 2 concentration 50 µM): 6.28 ± 10%
- cell viability [4]: 91.3 ± 7%
- cell viability (drug 1 concentration 3.33333 µM, drug 2 concentration 0.617284 µM): 88.5 ± 9.9%
- cell viability (drug 1 concentration 3.33333 µM, drug 2 concentration 1.85185 µM): 87.9 ± 12%
- cell viability (drug 1 concentration 3.33333 µM, drug 2 concentration 5.55556 µM): 81.2 ± 10%
- cell viability (drug 1 concentration 3.33333 µM, drug 2 concentration 16.6667 µM): 65.8 ± 11%
- cell viability (drug 1 concentration 3.33333 µM, drug 2 concentration 50 µM): 7.39 ± 11%
- cell viability [5]: 84.9 ± 13%
- cell viability (drug 1 concentration 10 µM, drug 2 concentration 0.617284 µM): 79.7 ± 11%
- cell viability (drug 1 concentration 10 µM, drug 2 concentration 1.85185 µM): 79.1 ± 10%
- cell viability (drug 1 concentration 10 µM, drug 2 concentration 5.55556 µM): 71.4 ± 9.8%
- cell viability (drug 1 concentration 10 µM, drug 2 concentration 16.6667 µM): 56.7 ± 9.4%
- cell viability (drug 1 concentration 10 µM, drug 2 concentration 50 µM): 0.97 ± 0.5%

Compound: C#Cc1cccc(Nc2ncnc3cc(OCCOC)c(OCCOC)cc23)c1 [Erlotinib] + CCCNC(=O)c1cn2ncnc(Nc3cc(C(=O)NC4CC4)ccc3C)c2c1C [BMS-582949 (hydrochloride)]
- cell viability [1]: 107 ± 7%
- cell viability (drug 1 concentration 0.123457 µM, drug 2 concentration 0.37037 µM): 104 ± 4.3%
- cell viability (drug 1 concentration 0.123457 µM, drug 2 concentration 1.11111 µM): 101 ± 5.8%
- cell viability (drug 1 concentration 0.123457 µM, drug 2 concentration 3.33333 µM): 97 ± 11%
- cell viability (drug 1 concentration 0.123457 µM, drug 2 concentration 10 µM): 92.8 ± 9.5%
- cell viability (drug 1 concentration 0.123457 µM, drug 2 concentration 30 µM): 82.6 ± 7.4%
- cell viability [2]: 108 ± 6.6%
- cell viability (drug 1 concentration 0.37037 µM, drug 2 concentration 0.37037 µM): 111 ± 9.8%
- cell viability (drug 1 concentration 0.37037 µM, drug 2 concentration 1.11111 µM): 112 ± 7.4%
- cell viability (drug 1 concentration 0.37037 µM, drug 2 concentration 3.33333 µM): 119 ± 8.6%
- cell viability (drug 1 concentration 0.37037 µM, drug 2 concentration 10 µM): 99.4 ± 8%
- cell viability (drug 1 concentration 0.37037 µM, drug 2 concentration 30 µM): 89.7 ± 8%
- cell viability [3]: 104 ± 6.9%
- cell viability (drug 1 concentration 1.11111 µM, drug 2 concentration 0.37037 µM): 101 ± 11%
- cell viability (drug 1 concentration 1.11111 µM, drug 2 concentration 1.11111 µM): 103 ± 9%
- cell viability (drug 1 concentration 1.11111 µM, drug 2 concentration 3.33333 µM): 104 ± 14%
- cell viability (drug 1 concentration 1.11111 µM, drug 2 concentration 10 µM): 89.8 ± 5.7%
- cell viability (drug 1 concentration 1.11111 µM, drug 2 concentration 30 µM): 82.4 ± 10%
- cell viability [4]: 106 ± 4.6%
- cell viability (drug 1 concentration 3.33333 µM, drug 2 concentration 0.37037 µM): 103 ± 9%
- cell viability (drug 1 concentration 3.33333 µM, drug 2 concentration 1.11111 µM): 104 ± 12%
- cell viability (drug 1 concentration 3.33333 µM, drug 2 concentration 3.33333 µM): 101 ± 18%
- cell viability (drug 1 concentration 3.33333 µM, drug 2 concentration 10 µM): 97.9 ± 13%
- cell viability (drug 1 concentration 3.33333 µM, drug 2 concentration 30 µM): 87.3 ± 7.2%
- cell viability [5]: 81.2 ± 4.4%
- cell viability (drug 1 concentration 10 µM, drug 2 concentration 0.37037 µM): 85.4 ± 3.6%
- cell viability (drug 1 concentration 10 µM, drug 2 concentration 1.11111 µM): 87.5 ± 7.8%
- cell viability (drug 1 concentration 10 µM, drug 2 concentration 3.33333 µM): 86.4 ± 5.9%
- cell viability (drug 1 concentration 10 µM, drug 2 concentration 10 µM): 81.2 ± 6.5%
- cell viability (drug 1 concentration 10 µM, drug 2 concentration 30 µM): 71.4 ± 6.7%
